Source: PubChem BioAssay AID504834 (National Center for Advancing Translational Sciences (NCATS), 2011)
Hit rate of the full screen: of about 320,000 compounds, about 22,000 (6.9%) were called active. Inconclusive means that the source gave no clear call. Such entries were picked first, then a sample of the others. The call rests on the fitted dose curve; in most records, active means well fitted inhibition curve with a large enough effect; inconclusive means small, poorly fitted or top-dose-only effect, or another doubt; inactive means no such curve, though single readings can be large or run the other way. Where the call is inconclusive, the potency comes from a doubtful curve fit.
On the % scale 0 is the no-effect control and ±100 the full control effect; potency means the concentration at half of the fitted maximal effect.

Experiment: Primary qHTS for delayed death inhibitors of the malarial parasite plastid, 96 hour incubation
Details: P. falciparum luciferase reporter growth; series mostly up to 28.7 µM; activity change, negative = inhibition: at the top concentration
How it was run: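 Two-generation exposure (96 h) targets delayed-death phenotype. Reporter parasites carrying integrated firefly luciferase, in red cells at 2% hematocrit and 0.05% parasitemia final, kept at 37 C, 5% CO2; luminescence loss indicates inhibition.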
In the case of `CC(NC(=O)CCc1nnc(C2CCCCC2)o1)c1ccc(F)cc1` (stereo unspecified), the “activity change, negative = inhibition” value is reported as inactive: 8.55%. With `COc1cc(NCCCCCCCN)c2ncccc2c1` the Potency was active: 3.7 µM. With `CCOC(=O)c1ccc(NC(=S)N2CCN(Cc3ccccc3)CC2)cc1` the Potency was inconclusive: 18.5 µM [inhibitor, single point]. In the case of `Cc1ccc(O)c(N=NC2=C(O)CC(C)(C)CC2=O)c1`, the Potency is reported as inconclusive: 16.5 µM [inhibitor, single point]. With `COc1ccc(-n2nc([N+](=O)[O-])c(=NCc3ccc4c(c3)OCO4)n2O)cc1` the Potency was active: 7.38 µM. For `OC(CNCC(c1ccco1)N1CCCCC1)c1ccccc1` (stereo unspecified), the Potency was inconclusive: 3.7 µM [inhibitor, full curve, poor fit]. In the case of `COc1cccc(N2CC(C(=O)Nc3nnc(SCc4ccccn4)s3)CC2=O)c1` (stereo unspecified), the Potency is reported as inconclusive: 10.4 µM [inhibitor, single point]. With `Cc1ccc(C)c(N(CC(=O)NC2CCCC2)C(=O)c2cc3cc4cc(C)ccc4nc3s2)c1` the Potency was inconclusive: 10.4 µM [inhibitor, single point]. In the case of `COc1cccc(N2CN(CCc3ccccc3)CNC2=S)c1`, the Potency is reported as inconclusive: 16.5 µM [inhibitor, single point]. For `CCN(CC)c1ncnc2c1sc1nc(N3CCOCC3)c3c(c12)CCC3`, the Potency was inconclusive: 8.28 µM [inhibitor, partial curve, poor fit]. For `CCC(C)Sc1ccc([C@@H]2[C@@H]3C(=O)N(C)C(=O)[C@@H]3[C@]3(C(=O)OC)CCCCN23)cc1` (stereo partly specified), the Potency was inconclusive: 18.5 µM [inhibitor, single point]. For `CC(=O)c1cccc(NC(=O)C(C)OC(=O)c2cccc(-n3cnnn3)c2)c1` (stereo unspecified), the “activity change, negative = inhibition” value was inactive: 9.7%. For `O=C(NC1CCCC1)C(c1ccncc1)N(CC1CCCO1)C(=O)Cn1nnc(-c2cccs2)n1` (stereo unspecified), the Potency was inconclusive: 10.4 µM [inhibitor, single point]. For `CN(CC(=O)NCc1ccccn1)S(=O)(=O)c1cc(Cl)ccc1Cl`, the “activity change, negative = inhibition” value was inactive: 45%. With `O=C(Cn1cnc2c(nnn2Cc2ccc(Cl)cc2)c1=O)N1CCN(c2ccccc2)CC1` the Potency was inconclusive: 14.7 µM [inhibitor, single point]. For `COc1ccc2[nH]cc(CC(=O)O)c2c1`, the Potency was inconclusive: 10.4 µM [inhibitor, partial curve, poor fit]. For `CC(C)N(C(=O)COc1ccc(Br)cc1Cl)C(C)C`, the Potency was inconclusive: 18.5 µM [inhibitor, single point]. For `Cc1ccc(NC(=O)c2cc(-c3ccccc3O)n[nH]2)cc1C`, the Potency was inconclusive: 5.22 µM [inhibitor, single point]. In the case of `O=C(CSc1nc2ccccc2s1)N1CCN(C(=O)c2ccco2)CC1`, the Potency is reported as inconclusive: 4.15 µM [inhibitor, single point]. In the case of `CCC1CCCCN1CC(O)Cn1c2ccccc2n2c(=O)cc(C)c(C#N)c12` (stereo unspecified), the Potency is reported as active: 4.65 µM. In the case of `Cc1noc(C)c1COc1ccccc1C(=O)NNC(=O)c1ccccc1`, the “activity change, negative = inhibition” value is reported as inactive: 14.2%. With `CC(C)=CCCC(C)CN1CCC(n2nccc2NC(=O)c2ccccc2)CC1` (stereo unspecified) the Potency was active: 14.7 µM. In the case of `O=C(CSc1nnc(CNC(=O)c2c(F)cccc2Cl)o1)NC1CCCC1`, the Potency is reported as inconclusive: 14.7 µM [inhibitor, single point]. In the case of `CC(C)c1ccc(CNCCCSc2ncccn2)cc1`, the Potency is reported as active: 13.1 µM. With `CN1CCc2c(sc(/N=C/c3cc(C(C)(C)C)ccc3O)c2C#N)C1` the Potency was inconclusive: 18.5 µM [inhibitor, single point]. For `COc1cc([N+](=O)[O-])ccc1NC(=O)CCCOc1cc(C)ccc1C`, the Potency was inconclusive: 16.5 µM [inhibitor, single point]. For `CCN1C(=O)CC(N2CCN(CC(=O)NC(C)C)CC2)C1=O` (stereo unspecified), the “activity change, negative = inhibition” value was inactive: 1.27%. With `COc1ccc(S(=O)(=O)N2CCCCCC2)cc1NC(=O)CN(C)Cc1ccc2c(c1)OCO2` the Potency was inconclusive: 13.1 µM [inhibitor, single point]. In the case of `C=CCn1c(CCNC(=O)c2ccccc2F)nnc1SCC(=O)Nc1nc2ccccc2s1`, the Potency is reported as active: 11.7 µM. In the case of `COCCOC(=O)/C(=C/c1ccc(OC(=O)c2ccccc2)cc1)C(C)=O`, the “activity change, negative = inhibition” value is reported as inactive: -21.8%. In the case of `COC(=O)c1[nH]c2cc(OC)c(OC)cc2c1NC(=O)CN1C[C@H]2C[C@@H](C1)c1cccc(=O)n1C2`, the Potency is reported as inconclusive: 3.7 µM [inhibitor, partial curve]. With `COCCN(C(=O)COC(=O)CC1CCCCC1)c1c(N)n(Cc2ccccc2)c(=O)[nH]c1=O` the Potency was inconclusive: 13.1 µM [inhibitor, single point]. For `O=C(CCSCCc1ccccn1)Nc1cc(F)ccc1F`, the Potency was inconclusive: 3.7 µM [inhibitor, single point]. With `Fc1ccc(/C=N/N2CCN(Cc3ccccc3)CC2)cc1` the Potency was active: 9.28 µM. For `COc1ccc(S(=O)(=O)N(C)CC(=O)NCc2cccnc2)cc1`, the Potency was inconclusive: 4.15 µM [inhibitor, single point]. For `COC(=O)c1cccc(N(CC(=O)NC2CCCCC2)C(=O)CNC(=O)c2cccs2)c1`, the “activity change, negative = inhibition” value was inactive: 16%. With `O=C1NN(c2ccc(F)cc2)C(=O)/C1=C\C=C\c1ccco1` the Potency was active: 1.65 µM. With `COc1ccccc1NC(=S)NCC1CCCCC1` the “activity change, negative = inhibition” value was inactive: 4.17%. For `Cc1cccc(-c2nc(CNC(=O)c3ccco3)cs2)c1`, the Potency was inconclusive: 14.7 µM [inhibitor, partial curve, poor fit]. In the case of `O=C(NCc1ccccc1)c1cccc(Br)n1`, the “activity change, negative = inhibition” value is reported as inactive: 1.07%. For `O=C(NCc1cccnc1)C1CCC(c2ccc(Cl)cc2)CC1` (stereo unspecified), the Potency was inconclusive: 18.5 µM [inhibitor, single point]. For `COC(=O)c1ccc(NC(=S)NCCC2=CCCCC2)cc1`, the Potency was inconclusive: 18.5 µM [inhibitor, single point]. For `O=C(Nc1ccc2c(c1)CCCN2C(=O)c1cccs1)c1ccccc1`, the “activity change, negative = inhibition” value was inactive: -23.7%. For `O=C(Nc1cccc(Cl)c1)c1ccccc1`, the “activity change, negative = inhibition” value was inactive: 85.2%. With `CCN1CCN(Cc2ccc(NC(=O)c3ccc(C)c(NC(=O)c4cc(-c5ccc(Br)cc5)n[nH]4)c3)cc2C(F)(F)F)CC1` the Potency was active: 1.85 µM. With `CCn1cc(C(=O)N2CCn3c(nc4ccccc43)C2)c(=O)c2ccc(C)nc21` the Potency was inconclusive: 18.5 µM [inhibitor, partial curve, poor fit].
